Experimental data: article PMC10024865 (Journal of medicinal chemistry, 2022)

Tested on: nucleolar volume in PC3M cells
Assay: Nucleolar disassembly assay
Type: cell-based
Details: 24 hr, concentration-response

N=c1c2c(-c3ccccc3)c(-c3ccccc3)n(Cc3ccccc3)c2ncn1CCCO [Compound 5a, 3-(7-Benzyl-4-imino-5,6-diphenyl-4,7-dihydro-3H-pyrrolo[2,3-d]pyrimidin-3-yl)propan-1-ol]
effect on nucleolar volume: able to reduce nucleolar volume
